Measurements reported in article doi:10.1101/2022.11.12.516293.
For at least one entry, the source does not settle the construct or the ends of the probe. Weaker means in comparison with the reference protein, sequence or condition of that experiment.

Target: PU.1 (UniProt P17947)
Experiment: EMSA
Conditions: anti-PU.1 antibody used, less than T allele

## CTATTTGCCTTTAAACACCGGAAATAACACCAGTGGC (double strand) [rs1412444-C]
  binding result: binds more weakly
